The source of these data is article PMC7862700.

By UniProt entry, the sequences of proteins in these tests, tags left out. Where a name states a change or a piece, a line headed by the entry shows the natural chain unless it says otherwise.
UniProt Q01892: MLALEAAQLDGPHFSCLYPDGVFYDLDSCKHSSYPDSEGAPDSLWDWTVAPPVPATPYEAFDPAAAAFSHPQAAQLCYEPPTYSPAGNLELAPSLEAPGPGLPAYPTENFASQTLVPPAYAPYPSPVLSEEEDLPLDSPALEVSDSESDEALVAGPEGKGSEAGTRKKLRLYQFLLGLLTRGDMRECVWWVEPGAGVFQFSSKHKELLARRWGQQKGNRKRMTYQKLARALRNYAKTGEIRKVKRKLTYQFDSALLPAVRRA
UniProt P41161: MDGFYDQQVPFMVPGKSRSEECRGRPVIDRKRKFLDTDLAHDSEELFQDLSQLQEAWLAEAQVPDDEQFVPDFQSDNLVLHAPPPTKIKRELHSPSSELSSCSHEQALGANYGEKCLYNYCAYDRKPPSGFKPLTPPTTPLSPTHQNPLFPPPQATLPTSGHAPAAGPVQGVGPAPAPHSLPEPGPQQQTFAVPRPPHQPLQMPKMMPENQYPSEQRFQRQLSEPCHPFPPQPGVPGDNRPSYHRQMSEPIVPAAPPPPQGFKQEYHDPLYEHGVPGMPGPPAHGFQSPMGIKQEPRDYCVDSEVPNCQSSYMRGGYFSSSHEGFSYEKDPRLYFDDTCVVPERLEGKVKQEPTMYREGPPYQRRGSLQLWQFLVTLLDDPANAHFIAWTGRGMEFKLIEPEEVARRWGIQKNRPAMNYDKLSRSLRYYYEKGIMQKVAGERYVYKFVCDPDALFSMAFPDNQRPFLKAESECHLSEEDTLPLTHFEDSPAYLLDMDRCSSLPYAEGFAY
UniProt Q99607: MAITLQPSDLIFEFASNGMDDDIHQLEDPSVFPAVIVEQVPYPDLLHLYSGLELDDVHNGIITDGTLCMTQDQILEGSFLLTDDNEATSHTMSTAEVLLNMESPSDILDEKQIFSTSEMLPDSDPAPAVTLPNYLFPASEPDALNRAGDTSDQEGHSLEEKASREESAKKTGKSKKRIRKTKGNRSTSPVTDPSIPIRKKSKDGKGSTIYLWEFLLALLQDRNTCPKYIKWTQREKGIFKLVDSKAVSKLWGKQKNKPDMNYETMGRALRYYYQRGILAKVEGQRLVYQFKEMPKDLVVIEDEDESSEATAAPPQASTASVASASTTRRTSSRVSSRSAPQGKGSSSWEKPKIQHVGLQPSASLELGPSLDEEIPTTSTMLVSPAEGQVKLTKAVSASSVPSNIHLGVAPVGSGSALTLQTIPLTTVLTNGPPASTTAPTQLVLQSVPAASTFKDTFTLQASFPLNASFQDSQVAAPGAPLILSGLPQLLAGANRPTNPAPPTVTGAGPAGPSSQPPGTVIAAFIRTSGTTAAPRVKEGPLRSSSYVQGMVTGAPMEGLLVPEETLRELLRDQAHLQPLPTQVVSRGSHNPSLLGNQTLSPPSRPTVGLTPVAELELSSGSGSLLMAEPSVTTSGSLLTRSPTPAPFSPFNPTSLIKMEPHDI

The list shows a part of the results, in another mix than the full data. At the low end of the ranking the order means little.

Targets include SPIB (UniProt Q01892); ETV5 (UniProt P41161); ELF4 (UniProt Q99607).
Holding throughout (assay): DAPPL (digital affinity profiling via proximity ligation, sequencing)
Common to all, as to details: 10 mM Tris-HCl pH 7.5, 50 mM NaCl, 1 mM DTT, 4% glycerol, room temperature, 30 min; GST-TFs on glutathione beads, 16-mer random dsDNA library, 0.1% …; high values mean tight binding; double strand, one strand shown; scale: fold enrichment (6-mer frequency, TF over GST control)

For the next experiment, the target named is T1, FLI1 (UniProt Q01543).
T1 sequence: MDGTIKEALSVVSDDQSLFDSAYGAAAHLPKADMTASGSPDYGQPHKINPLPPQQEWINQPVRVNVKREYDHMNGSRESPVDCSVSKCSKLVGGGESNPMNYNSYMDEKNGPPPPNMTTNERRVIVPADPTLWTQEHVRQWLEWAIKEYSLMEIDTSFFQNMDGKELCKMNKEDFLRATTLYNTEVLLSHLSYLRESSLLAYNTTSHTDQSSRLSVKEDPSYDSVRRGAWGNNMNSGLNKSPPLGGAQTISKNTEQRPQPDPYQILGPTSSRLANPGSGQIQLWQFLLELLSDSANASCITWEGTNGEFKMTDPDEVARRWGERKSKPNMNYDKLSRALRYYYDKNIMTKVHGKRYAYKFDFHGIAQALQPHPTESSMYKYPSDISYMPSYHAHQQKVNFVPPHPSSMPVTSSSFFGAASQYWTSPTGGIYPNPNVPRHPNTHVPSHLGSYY

The target in a further experiment is T2, EHF (UniProt Q9NZC4).
T2 sequence: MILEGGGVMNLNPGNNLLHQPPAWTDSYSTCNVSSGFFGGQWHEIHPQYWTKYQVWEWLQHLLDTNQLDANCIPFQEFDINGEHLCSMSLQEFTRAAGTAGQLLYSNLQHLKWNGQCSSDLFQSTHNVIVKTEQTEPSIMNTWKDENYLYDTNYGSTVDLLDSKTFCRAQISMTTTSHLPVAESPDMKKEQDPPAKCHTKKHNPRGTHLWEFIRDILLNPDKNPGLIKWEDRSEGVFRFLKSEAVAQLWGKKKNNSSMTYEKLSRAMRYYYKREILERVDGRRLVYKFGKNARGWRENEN

In a further experiment the target is T3, ETV2 (UniProt O00321).
T3 sequence: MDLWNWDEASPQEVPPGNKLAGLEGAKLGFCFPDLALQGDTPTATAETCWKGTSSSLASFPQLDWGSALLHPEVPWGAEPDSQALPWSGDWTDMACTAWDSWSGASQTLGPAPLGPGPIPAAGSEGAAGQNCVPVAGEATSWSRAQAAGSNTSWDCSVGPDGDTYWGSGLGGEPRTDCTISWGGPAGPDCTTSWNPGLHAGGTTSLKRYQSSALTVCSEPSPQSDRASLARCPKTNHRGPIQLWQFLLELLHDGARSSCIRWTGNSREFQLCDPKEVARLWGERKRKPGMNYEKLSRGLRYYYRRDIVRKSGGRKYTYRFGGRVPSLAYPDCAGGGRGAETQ

The next experiment deals with T4, ETV3L (UniProt Q6ZN32).
T4 sequence: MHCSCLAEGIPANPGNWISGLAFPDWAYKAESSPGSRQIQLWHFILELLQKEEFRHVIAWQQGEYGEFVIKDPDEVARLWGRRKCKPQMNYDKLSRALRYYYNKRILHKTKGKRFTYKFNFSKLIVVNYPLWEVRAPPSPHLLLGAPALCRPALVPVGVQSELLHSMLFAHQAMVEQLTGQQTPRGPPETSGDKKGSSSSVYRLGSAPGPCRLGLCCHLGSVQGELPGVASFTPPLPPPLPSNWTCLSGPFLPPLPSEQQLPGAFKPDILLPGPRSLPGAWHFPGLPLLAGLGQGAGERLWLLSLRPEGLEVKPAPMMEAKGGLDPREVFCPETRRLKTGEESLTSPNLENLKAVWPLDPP

For the sequence GCCATA, the binding signal came out at 0.871 in the experiment with FLI1; 0.995 with EHF; 0.924 with SPIB; 0.842 in the experiment with ETV5; 0.958 with ELF4; 0.925 in the experiment with ETV2. This sequence also displayed a binding signal with ETV3L of 0.908.
In the case of CAGTGG, the binding signal with FLI1 worked out at 0.531; with EHF, 0.48; with SPIB it was 0.443; with ETV5, 0.492; in the experiment with ELF4 it was 0.481; with ETV2, 0.47. Also, the binding signal with ETV3L is 0.46.
On to AGACAC, for which the binding signal stood at 0.765 with FLI1; 0.735 in the experiment with EHF; 0.758 with SPIB; 0.752 with ETV5; 0.754 in the experiment with ELF4; 0.755 with ETV2. In addition, the binding signal with ETV3L is 0.804.
As for CAGAGT, the binding signal in the experiment with FLI1 turned out to be 0.649; in the experiment with EHF it was 0.629; in the experiment with SPIB, 0.574; in the experiment with ETV5, 0.671; with ELF4, 0.629; with ETV2, 0.593. Besides, the binding signal with ETV3L is 0.663.
With CATCGG, the binding signal with FLI1 came out at 0.7; with EHF it was 0.698; with SPIB, 0.707; in the experiment with ETV5, 0.615; in the experiment with ELF4, 0.69; with ETV2 it was 0.614. The binding signal with ETV3L was found to be 0.725.
As to AGGTGG, the binding signal in the experiment with FLI1 was 0.594; with EHF it was 0.653; with SPIB it was 0.599; in the experiment with ETV5 it was 0.685; with ELF4, 0.61; with ETV2, 0.528. In the experiment with ETV3L, this sequence came in with a binding signal of 0.654.
For the sequence GTCGTA, the binding signal turned out to be 0.63 with FLI1; 0.569 with EHF; 0.601 in the experiment with SPIB; 0.601 with ETV5; 0.618 with ELF4; 0.69 with ETV2. In addition, in the experiment with ETV3L, the binding signal was found to be 0.566.
Take AGTAGG: the binding signal in the experiment with FLI1 was 0.632; in the experiment with EHF it was 0.656; in the experiment with SPIB it was 0.596; with ETV5 it was 0.689; with ELF4, 0.599; in the experiment with ETV2, 0.7. This sequence also registered a binding signal with ETV3L of 0.647.
Turning to GTGAAT, the binding signal was 0.817 with FLI1; 0.836 with EHF; 0.881 with SPIB; 0.82 in the experiment with ETV5; 0.789 in the experiment with ELF4; 0.776 with ETV2. For the same sequence, in the experiment with ETV3L, the binding signal was 0.786.
For GTCAAG, the binding signal came to 0.725 with FLI1; 0.778 with EHF; 0.777 with SPIB; 0.801 in the experiment with ETV5; 0.773 with ELF4; 0.783 in the experiment with ETV2. The binding signal in the experiment with ETV3L was 0.816.
On to GCCACG, for which the binding signal in the experiment with FLI1 stood at 0.944; with EHF, 0.949; with SPIB, 0.926; in the experiment with ETV5, 0.879; in the experiment with ELF4, 0.944; with ETV2, 0.827. In the experiment with ETV3L, this sequence showed a binding signal of 0.993.
As for AGTAGT, the binding signal in the experiment with FLI1 was 0.97; with EHF, 0.98; with SPIB, 0.911; with ETV5 it was 0.886; with ELF4, 0.89; in the experiment with ETV2, 0.91. This sequence also yielded a binding signal with ETV3L of 0.929.
Regarding AGCGCG, the binding signal with FLI1 amounted to 0.745; with EHF it was 0.874; with SPIB, 0.885; with ETV5 it was 0.799; with ELF4 it was 0.843; in the experiment with ETV2, 0.797. The sequence also registered a binding signal with ETV3L of 0.771.
AGCGGA: the binding signal in the experiment with FLI1 amounted to 0.769; with EHF it was 0.85; with SPIB, 0.784; with ETV5, 0.874; in the experiment with ELF4, 0.676; in the experiment with ETV2, 0.857. The binding signal in the experiment with ETV3L was 0.758.
As for GGGCGT, the binding signal in the experiment with FLI1 is 0.469; with EHF, 0.456; in the experiment with SPIB, 0.447; with ETV5, 0.442; in the experiment with ELF4, 0.479; with ETV2 it was 0.544. Besides, the binding signal with ETV3L was found to be 0.509.
For the sequence AGAGGG, the binding signal with FLI1 was determined as 0.689; with EHF, 0.726; with SPIB it was 0.739; with ETV5, 0.726; in the experiment with ELF4, 0.736; in the experiment with ETV2, 0.807. In the experiment with ETV3L, this sequence came in with a binding signal of 0.669.
Turning to AGGGGT, the binding signal stood at 0.883 in the experiment with FLI1; 0.809 with EHF; 0.85 with SPIB; 0.838 with ETV5; 0.803 with ELF4; 0.839 with ETV2. This sequence also returned a binding signal with ETV3L of 0.817.
ACTAGT: the binding signal in the experiment with FLI1 amounted to 0.887; with EHF, 0.908; with SPIB it was 0.84; with ETV5 it was 0.896; with ELF4 it was 0.882; in the experiment with ETV2 it was 0.947. The binding signal in the experiment with ETV3L amounted to 0.856.
With GGGCAG, the binding signal with FLI1 amounted to 0.556; with EHF, 0.59; in the experiment with SPIB, 0.603; with ETV5 it was 0.579; in the experiment with ELF4 it was 0.555; with ETV2 it was 0.623. In addition, the binding signal in the experiment with ETV3L was determined as 0.614.
As for GCGCAA, the binding signal turned out to be 0.823 with FLI1; 0.894 with EHF; 0.748 with SPIB; 0.815 with ETV5; 0.811 with ELF4; 0.836 with ETV2. In addition, in the experiment with ETV3L, the binding signal turned out to be 0.861.
